From the supplement of paper PMC12067093, “Discovery and optimisation of a covalent ligand for TRIM25 and its application to targeted protein ubiquitination” (Chemical Science, 2025) come the findings set out here.

The chains behind the UniProt entries cited, without tags or fusion partners. Where a name states a change or a piece, a line headed by the entry shows the natural chain unless it says otherwise.
UniProt P13489: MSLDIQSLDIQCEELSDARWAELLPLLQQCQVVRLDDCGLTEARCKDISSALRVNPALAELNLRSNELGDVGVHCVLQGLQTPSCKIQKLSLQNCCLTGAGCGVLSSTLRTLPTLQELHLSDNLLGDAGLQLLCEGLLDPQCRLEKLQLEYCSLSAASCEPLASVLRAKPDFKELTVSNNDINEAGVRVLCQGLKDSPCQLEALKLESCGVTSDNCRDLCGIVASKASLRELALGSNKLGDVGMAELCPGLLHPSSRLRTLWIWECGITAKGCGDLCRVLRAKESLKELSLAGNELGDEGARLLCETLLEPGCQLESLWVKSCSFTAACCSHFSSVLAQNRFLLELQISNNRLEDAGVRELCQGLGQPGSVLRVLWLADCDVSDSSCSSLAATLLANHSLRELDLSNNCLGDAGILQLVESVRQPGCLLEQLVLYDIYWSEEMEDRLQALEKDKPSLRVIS
UniProt Q9NTX7: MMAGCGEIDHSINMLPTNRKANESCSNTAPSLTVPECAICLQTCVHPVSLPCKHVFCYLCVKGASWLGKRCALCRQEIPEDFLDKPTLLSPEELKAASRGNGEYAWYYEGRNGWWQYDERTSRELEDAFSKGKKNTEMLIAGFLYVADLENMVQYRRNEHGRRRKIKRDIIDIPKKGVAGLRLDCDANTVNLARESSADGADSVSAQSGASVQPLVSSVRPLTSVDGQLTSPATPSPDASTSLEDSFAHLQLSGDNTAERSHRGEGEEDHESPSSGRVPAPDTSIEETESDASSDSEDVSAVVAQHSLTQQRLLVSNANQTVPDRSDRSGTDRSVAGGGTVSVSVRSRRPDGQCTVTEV
UniProt Q969K3: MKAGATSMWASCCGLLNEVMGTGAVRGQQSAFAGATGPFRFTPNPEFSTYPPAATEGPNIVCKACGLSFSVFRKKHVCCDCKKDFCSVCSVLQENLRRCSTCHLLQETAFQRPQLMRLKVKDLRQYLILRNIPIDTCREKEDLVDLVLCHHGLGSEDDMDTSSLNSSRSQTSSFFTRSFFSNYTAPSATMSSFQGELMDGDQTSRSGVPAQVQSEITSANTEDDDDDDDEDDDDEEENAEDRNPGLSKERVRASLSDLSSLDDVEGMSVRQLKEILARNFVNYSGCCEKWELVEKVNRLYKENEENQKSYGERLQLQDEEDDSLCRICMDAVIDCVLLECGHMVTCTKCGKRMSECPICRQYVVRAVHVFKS
UniProt Q63HN8: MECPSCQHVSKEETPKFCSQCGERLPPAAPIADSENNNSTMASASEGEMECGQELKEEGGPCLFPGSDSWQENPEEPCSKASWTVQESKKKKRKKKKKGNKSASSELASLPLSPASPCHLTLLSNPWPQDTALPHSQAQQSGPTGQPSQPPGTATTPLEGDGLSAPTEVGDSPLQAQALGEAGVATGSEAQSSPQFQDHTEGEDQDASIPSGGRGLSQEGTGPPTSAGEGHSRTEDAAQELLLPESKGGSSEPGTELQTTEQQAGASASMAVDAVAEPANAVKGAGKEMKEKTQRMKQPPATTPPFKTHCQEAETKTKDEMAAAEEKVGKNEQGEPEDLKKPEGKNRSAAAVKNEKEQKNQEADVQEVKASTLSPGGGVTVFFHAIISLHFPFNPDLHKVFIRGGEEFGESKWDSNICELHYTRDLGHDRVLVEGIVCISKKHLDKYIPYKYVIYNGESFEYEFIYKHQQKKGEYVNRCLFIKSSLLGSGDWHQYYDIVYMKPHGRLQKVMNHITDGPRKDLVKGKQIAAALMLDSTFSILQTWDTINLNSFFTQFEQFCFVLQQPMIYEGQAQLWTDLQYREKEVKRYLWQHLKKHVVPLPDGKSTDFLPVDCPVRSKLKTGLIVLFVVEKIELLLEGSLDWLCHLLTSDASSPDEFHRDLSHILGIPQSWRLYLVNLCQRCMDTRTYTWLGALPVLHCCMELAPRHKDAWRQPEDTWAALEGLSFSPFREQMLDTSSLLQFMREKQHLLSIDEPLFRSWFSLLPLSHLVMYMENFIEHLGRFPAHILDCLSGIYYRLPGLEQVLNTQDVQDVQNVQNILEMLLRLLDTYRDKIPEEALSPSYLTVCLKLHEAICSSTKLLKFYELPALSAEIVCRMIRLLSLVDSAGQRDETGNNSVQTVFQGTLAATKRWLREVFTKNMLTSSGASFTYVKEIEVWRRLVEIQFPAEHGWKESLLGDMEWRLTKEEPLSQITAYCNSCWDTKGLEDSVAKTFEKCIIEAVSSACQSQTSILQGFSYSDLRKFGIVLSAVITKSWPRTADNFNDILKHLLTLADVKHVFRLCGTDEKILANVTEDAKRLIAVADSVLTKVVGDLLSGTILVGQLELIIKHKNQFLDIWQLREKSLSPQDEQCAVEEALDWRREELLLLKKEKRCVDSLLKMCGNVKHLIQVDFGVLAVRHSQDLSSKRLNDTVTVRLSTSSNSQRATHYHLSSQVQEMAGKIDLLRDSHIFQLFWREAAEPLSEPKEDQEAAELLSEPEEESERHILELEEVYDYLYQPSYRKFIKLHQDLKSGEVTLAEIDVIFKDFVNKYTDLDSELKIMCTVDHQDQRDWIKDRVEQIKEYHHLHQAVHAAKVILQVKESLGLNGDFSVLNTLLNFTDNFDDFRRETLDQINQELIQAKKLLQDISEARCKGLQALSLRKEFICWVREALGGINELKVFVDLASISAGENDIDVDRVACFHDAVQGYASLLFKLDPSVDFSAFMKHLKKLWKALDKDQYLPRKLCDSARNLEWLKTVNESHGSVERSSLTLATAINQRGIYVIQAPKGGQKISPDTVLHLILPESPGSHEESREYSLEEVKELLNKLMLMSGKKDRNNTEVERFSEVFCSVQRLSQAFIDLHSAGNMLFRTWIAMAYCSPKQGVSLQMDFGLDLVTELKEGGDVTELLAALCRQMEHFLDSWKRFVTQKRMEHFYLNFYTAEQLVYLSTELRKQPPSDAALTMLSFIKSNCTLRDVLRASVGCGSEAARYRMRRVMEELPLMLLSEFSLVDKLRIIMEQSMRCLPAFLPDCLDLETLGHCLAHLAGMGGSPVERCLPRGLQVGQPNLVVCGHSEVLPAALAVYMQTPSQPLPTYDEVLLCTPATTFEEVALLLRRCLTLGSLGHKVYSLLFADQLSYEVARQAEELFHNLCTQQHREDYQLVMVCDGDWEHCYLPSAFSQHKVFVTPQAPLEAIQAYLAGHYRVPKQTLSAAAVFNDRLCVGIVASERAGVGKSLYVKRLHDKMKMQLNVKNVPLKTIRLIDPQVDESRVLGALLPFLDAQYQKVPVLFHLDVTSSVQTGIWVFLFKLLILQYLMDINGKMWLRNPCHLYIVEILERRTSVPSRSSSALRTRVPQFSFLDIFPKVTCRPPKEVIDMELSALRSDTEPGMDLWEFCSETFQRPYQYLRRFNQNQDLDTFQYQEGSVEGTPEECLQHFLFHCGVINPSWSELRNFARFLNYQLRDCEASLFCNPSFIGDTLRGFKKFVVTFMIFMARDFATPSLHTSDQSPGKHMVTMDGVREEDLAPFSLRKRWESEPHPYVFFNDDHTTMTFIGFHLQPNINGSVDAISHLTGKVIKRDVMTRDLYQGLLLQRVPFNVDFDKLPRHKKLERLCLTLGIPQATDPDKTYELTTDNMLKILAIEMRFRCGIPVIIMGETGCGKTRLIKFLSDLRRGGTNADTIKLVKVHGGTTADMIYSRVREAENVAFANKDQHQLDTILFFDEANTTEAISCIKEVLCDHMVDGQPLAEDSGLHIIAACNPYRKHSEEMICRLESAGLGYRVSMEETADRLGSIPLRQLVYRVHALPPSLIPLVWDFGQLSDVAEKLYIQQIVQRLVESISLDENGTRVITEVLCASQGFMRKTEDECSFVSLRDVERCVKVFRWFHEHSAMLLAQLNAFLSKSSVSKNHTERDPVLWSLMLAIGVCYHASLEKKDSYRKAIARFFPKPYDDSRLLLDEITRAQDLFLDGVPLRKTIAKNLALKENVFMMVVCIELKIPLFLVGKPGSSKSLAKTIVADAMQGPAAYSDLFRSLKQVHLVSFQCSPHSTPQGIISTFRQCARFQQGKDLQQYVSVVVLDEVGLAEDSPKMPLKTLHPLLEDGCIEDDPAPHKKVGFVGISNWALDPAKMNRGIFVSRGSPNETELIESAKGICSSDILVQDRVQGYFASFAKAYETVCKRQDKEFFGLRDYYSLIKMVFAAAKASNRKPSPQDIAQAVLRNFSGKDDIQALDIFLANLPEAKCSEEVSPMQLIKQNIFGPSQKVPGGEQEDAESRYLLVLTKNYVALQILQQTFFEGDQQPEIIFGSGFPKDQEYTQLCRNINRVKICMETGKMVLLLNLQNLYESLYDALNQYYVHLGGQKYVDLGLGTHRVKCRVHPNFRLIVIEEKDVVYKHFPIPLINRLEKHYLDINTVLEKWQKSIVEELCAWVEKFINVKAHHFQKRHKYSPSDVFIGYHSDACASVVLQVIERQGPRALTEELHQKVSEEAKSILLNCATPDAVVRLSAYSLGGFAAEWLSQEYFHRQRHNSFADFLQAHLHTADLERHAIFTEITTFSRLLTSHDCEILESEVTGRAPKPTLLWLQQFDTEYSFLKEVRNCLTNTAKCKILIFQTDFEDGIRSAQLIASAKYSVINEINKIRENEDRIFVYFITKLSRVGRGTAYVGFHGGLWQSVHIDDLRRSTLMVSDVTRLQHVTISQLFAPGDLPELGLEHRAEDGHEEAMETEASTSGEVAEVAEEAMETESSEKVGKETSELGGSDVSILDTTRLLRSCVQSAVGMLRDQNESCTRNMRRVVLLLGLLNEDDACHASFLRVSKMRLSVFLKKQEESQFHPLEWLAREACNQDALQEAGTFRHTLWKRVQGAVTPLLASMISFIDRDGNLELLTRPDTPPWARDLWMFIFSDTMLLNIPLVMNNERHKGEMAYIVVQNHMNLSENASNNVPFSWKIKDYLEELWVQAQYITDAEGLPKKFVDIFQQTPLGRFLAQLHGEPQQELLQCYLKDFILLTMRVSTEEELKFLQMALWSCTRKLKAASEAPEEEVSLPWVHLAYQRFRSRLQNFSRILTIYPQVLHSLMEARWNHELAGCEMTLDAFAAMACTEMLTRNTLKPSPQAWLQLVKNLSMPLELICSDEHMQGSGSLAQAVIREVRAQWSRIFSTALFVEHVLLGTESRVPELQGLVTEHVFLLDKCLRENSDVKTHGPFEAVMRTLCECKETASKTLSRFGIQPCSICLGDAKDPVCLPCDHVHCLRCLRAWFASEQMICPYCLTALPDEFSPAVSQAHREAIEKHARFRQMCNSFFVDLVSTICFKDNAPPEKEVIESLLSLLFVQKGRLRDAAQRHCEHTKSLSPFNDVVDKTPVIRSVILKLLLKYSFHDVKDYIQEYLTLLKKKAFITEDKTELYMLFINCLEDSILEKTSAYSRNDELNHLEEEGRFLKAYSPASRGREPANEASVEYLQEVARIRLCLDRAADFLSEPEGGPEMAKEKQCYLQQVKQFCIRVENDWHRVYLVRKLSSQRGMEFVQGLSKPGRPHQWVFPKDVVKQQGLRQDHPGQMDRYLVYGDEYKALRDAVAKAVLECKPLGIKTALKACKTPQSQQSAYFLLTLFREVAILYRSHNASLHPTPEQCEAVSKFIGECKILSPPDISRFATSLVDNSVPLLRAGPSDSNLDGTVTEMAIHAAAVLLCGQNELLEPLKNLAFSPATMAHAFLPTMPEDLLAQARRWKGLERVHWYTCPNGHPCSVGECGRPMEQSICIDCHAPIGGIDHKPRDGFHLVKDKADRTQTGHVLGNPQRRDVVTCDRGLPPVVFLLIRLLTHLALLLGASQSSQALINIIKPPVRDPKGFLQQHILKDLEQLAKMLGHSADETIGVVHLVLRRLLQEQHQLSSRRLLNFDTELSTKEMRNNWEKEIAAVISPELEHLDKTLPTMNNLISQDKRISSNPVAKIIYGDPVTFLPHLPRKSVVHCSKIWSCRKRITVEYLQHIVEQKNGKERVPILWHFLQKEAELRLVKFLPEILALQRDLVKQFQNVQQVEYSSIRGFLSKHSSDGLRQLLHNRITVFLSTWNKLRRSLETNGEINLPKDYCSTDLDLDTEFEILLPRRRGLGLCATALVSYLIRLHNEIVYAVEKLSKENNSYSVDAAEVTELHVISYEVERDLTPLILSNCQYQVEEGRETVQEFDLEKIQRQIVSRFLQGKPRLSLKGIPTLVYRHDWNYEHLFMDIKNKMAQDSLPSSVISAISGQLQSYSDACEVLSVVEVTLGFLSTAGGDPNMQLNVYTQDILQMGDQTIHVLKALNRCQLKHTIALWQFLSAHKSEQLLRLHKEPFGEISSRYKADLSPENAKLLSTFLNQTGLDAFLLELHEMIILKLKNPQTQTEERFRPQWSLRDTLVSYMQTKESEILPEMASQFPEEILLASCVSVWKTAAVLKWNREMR

The other results are listed elsewhere or left out.

Compound in this test: CC1Cc2ccccc2N1C(=O)C1CCCN(C1)C(=O)CCl (mixture of isomers) [TRIM25 ligand 11 (diastereomer mixture)]
Briefly: probe-labelled cysteine peptide fold change vs DMSO (competition) (log2 fold change); higher = less target engagement (more negative = stronger competition). The settings on record: THP-1, incubation time: 4 h.
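Note: competitive chemoproteomic profiling in live THP-1 cells with an iodoacetamide desthiobiotin (IA-DTB) probe, comparing probe-labelled peptide intensities in compound-treated cells against DMSO-treated controls.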

As for RPF2_Q9H7B2_135_CPEGTK (UniProt Q9H7B2), the “probe-labelled cysteine peptide fold change” value worked out at 0.157 (10 µM) and 0.138 (50 µM).
In the case of “ROCK2_O75116_1277_GHEFIPTLYHFPTNCEACMK (UniProt O75116)”, the “probe-labelled cysteine peptide fold change” value (10 µM) is 0.00567 and the “probe-labelled cysteine peptide fold change” value (50 µM) is -0.152.
The corresponding values for “RPL27A_P46776_70_RNQSFCPTVNLDK (UniProt P46776)” are -0.102 and -0.143.
Taken in the same sequence, the figures for “RNPEP_Q9H4A4_123_ERPGSEEPPAEPVSFYTQPFSHYGQALCVSFPQPCR (UniProt Q9H4A4)” were -0.19 and 0.00451.
For “RNF31_Q96EP0_473_LSAPLPSSCGDPEK (UniProt Q96EP0)”, the “probe-labelled cysteine peptide fold change” value is, setting by setting: (10 µM) -0.0484; (50 µM) -0.11.
For the target “RNH1_P13489_38_LDDCGLTEAR (UniProt P13489)”, the “probe-labelled cysteine peptide fold change” value is -0.129 (10 µM) and -0.291 (50 µM).
“RNH1_P13489_30_WAELLPLLQQCQVVR (UniProt P13489)”: the “probe-labelled cysteine peptide fold change” value is, setting by setting: (10 µM) -0.0264; (50 µM) -0.12.
Taken in the same sequence, the figures for “RPL11_P62913_21_LCLNICVGESGDR (UniProt P62913)” were 0.00603 and 0.0546.
As to “RNF20_Q5VTR2_905_CDEILMEEIK (UniProt Q5VTR2)”, the “probe-labelled cysteine peptide fold change” value (10 µM) is -0.107 and the “probe-labelled cysteine peptide fold change” value (50 µM) was -0.12.
The corresponding values for “RNMT_O43148_225_LVCTDIADVSVK (UniProt O43148)” are 0.261 and 0.14.
“RNF146_Q9NTX7-2_4_AGCGEIDHSINMLPTNR (UniProt Q9NTX7)”: the “probe-labelled cysteine peptide fold change” value runs as follows: (10 µM) -0.0562; (50 µM) -0.145.
Taken in the same sequence, the figures for “RPL10_P27635_195_LIPDGCGVK (UniProt P27635)” were -0.112 and -0.223.
Take “RNF139_Q8WU17_550_LQEINDVCAICYHEFTTSAR (UniProt Q8WU17)”: the “probe-labelled cysteine peptide fold change” value by setting is: (10 µM) -0.0203; (50 µM) 0.0142.
The corresponding values for “RNF146_Q9NTX7_185_LDCDANTVNLAR (UniProt Q9NTX7)” are 0.0136 and 0.0567.
With “RNF40_O75150_971_CFHVFCFECVR (UniProt O75150)”, the “probe-labelled cysteine peptide fold change” value reads like this: (10 µM) -0.278; (50 µM) 0.257.
Taken in the same sequence, the figures for “RPL11_P62913_72_IAVHCTVR (UniProt P62913)” were 0.186 and 0.163.
Taken in the same sequence, the figures for “RPL4_P36578_208_RGPCIIYNEDNGIIK (UniProt P36578)” were -0.216 and -0.23.
Regarding “RNGTT_O60942_97_GHGECPTTENTETFIR (UniProt O60942)”, the “probe-labelled cysteine peptide fold change” value by setting is: (10 µM) 0.159; (50 µM) -0.0768.
In the case of “RPL27A_P46776_144_SVGGACVLVA (UniProt P46776)”, the “probe-labelled cysteine peptide fold change” value is -0.135 (10 µM) and 0.0419 (50 µM).
Taken in the same sequence, the figures for “RPL11_P62913_150_TGCIGAK (UniProt P62913)” were 0.0226 and 0.0142.
The corresponding values for RPL8_P62917_195_RNCWPR (UniProt P62917) are -0.0915 and -0.097.
Turning to “RNF34_Q969K3_340_ICMDAVIDCVLLECGHMVTCTK (UniProt Q969K3)”, the “probe-labelled cysteine peptide fold change” value is -0.049 (10 µM) and -0.244 (50 µM).
The corresponding values for “RNH1_P13489_277_GCGDLCR (UniProt P13489)” are -0.238 and 0.335.
On to “RPL4_P36578_250_FCIWTESAFRK (UniProt P36578)”, for which the “probe-labelled cysteine peptide fold change” value (10 µM) is -0.258 and the “probe-labelled cysteine peptide fold change” value (50 µM) was -0.133.
Taken in the same sequence, the figures for “RNF213_Q63HN8_614_STDFLPVDCPVR (UniProt Q63HN8)” were -0.0244 and -0.262.
On to “RNPEP_Q9H4A4_85_LDSHPCLEVTAAALRR (UniProt Q9H4A4)”, for which the “probe-labelled cysteine peptide fold change” value reads like this: (10 µM) -0.216; (50 µM) -0.185.
“RNH1_P13489_75+85_SNELGDVGVHCVLQGLQTPSCKIQK (UniProt P13489)”: the “probe-labelled cysteine peptide fold change” value (10 µM) is -0.273 and the “probe-labelled cysteine peptide fold change” value (50 µM) is 0.0124.
With “RNF214_Q8ND24_23_AASEVAGVVANAPSPPESSSLCASK (UniProt Q8ND24)”, the “probe-labelled cysteine peptide fold change” value (10 µM) worked out at 0.0135 and the “probe-labelled cysteine peptide fold change” value (50 µM) was -0.362.
Consider “RNH1_P13489_329+330_SCSFTAACCSHFSSVLAQNR (UniProt P13489)”, for which the “probe-labelled cysteine peptide fold change” value runs as follows: (10 µM) 0.218; (50 µM) -0.13.
As for RPL17_P18621_57_QCVPFR (UniProt P18621), the “probe-labelled cysteine peptide fold change” value was 0.206 (10 µM) and -0.064 (50 µM).
Take “RNF213_Q63HN8_2809_QVHLVSFQCSPHSTPQGIISTFR (UniProt Q63HN8)”: the “probe-labelled cysteine peptide fold change” value worked out at 0.227 (10 µM) and 0.189 (50 µM).
For “RNH1_P13489_362_ELCQGLGQPGSVLR (UniProt P13489)”, the “probe-labelled cysteine peptide fold change” value (10 µM) amounted to 0.0673 and the “probe-labelled cysteine peptide fold change” value (50 µM) stood at 0.135.
With “RPL18A_Q02543_22_CHTPPLYR (UniProt Q02543)”, the “probe-labelled cysteine peptide fold change” value was -0.149 (10 µM) and -0.0267 (50 µM).
